In patent US20240343727A1, “PYRIDAZINONE OR PYRIDINONE COMPOUNDS, PREPARATION METHODS AND USES THEREOF” (InventisBio Co., Ltd., priority 2021, published 2024):
Where two headings read alike, the source gives them in different places. The structures given here were assigned with low confidence; some may be wrong.

Chains of the proteins cited; added tags and fusions are not shown.
UniProt Q7Z3E1, whole entry: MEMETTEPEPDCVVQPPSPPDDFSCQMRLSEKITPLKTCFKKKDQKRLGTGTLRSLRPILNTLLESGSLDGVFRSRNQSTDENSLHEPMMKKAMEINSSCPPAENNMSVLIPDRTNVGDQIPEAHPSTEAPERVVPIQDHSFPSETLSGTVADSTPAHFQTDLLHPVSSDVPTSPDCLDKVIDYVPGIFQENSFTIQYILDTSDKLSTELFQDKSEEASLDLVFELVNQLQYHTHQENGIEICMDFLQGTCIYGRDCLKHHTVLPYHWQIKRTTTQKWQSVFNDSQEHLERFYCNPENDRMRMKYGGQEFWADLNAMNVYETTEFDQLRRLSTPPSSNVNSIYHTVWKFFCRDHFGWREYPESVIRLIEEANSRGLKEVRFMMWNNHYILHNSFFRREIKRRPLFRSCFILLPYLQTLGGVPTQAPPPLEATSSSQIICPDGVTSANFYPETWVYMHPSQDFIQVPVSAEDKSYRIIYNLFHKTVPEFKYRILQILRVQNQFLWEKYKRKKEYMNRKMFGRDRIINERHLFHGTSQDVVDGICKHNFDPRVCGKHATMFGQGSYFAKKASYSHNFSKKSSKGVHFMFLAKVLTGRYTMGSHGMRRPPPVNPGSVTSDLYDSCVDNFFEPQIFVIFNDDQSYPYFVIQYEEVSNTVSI

Legend:
PARP7 = PARP7 (Homo sapiens, UniProt Q7Z3E1); experiment: PARP7 TR-FRET assay (binding, displacement of biotinylated Probe A); settings: read-out: PARP7 TR-FRET IC50, 6 nM PARP7, 2 nM Probe A, 25° C., 30 min
Experimental: Biological Assay Example A: PARP7 TR-FRET Assay
A time-resolved fluorescence energy transfer (TR-FRET) assay was used to test binding activity of compounds to PARP7. Two microliter test compound was added in 384-well plate. Reactions were performed in a 6 uL volume by adding 4 uL mixture of PARP7 and Probe A (a biotinylated probe binding to the PARP7: N-(6-(2-(4-((2-(6-oxo-5-(trifluoromethyl)-1,6-dihydropyridazin-4-yl) isoindolin-5-yl) oxy) piperidin-1-yl) acetamido) hexyl)-5-((3aS,4S,6aR)-2-oxohexahydro-1H-thieno [3,4-d]imidazol-4-yl) pentanamide, made as reported in WO2019212937A1) in assay buffer (20 mM HEPES pH 8.0, 100 mM NaCl, 0.1% BSA, 2 mM DTT and 0.002% Tween20). The final concentration of PARP7 and Probe A were 6 nM and 2 nM, incubating with test compounds at 25° C. for 30 min. Four microliter ULight-anti 6xHis and LANCE Eu-W1024 labeled streptavidin (PerkinElmer) were added with the final concentration of ULight-anti 6xHis and LANCE Eu-W1024 at 4 nM and 0.25 nM. The reaction mixture was incubated at 25° C. for 30 min. The plate was read on a Tecan Spark plate reader (excitation wavelength at 320 nm, emission wavelength at 615 nm and 665 nm with a 90 us delay. The ratio of the 665/615 nm emission was calculated for each well to the amount of complex of PARP7 and Probe A in each well was calculated. The 0.25% DMSO vehicle was used as control and no PARP7 well was as blank well. Inhibition rate is calculated with the formula of % inhibition=100-100*(TRFcmpd-TRFblank)/(TRFcontrol−TRFblank). Inhibition IC50 is calculated with the equation of Y=Bottom+ (Top-Bottom)/(1+10^((LogIC50−X) *Hill Slope))

NCI-H1373 cells = experiment: Inhibition of cancer cell growth in NCI-H1373 cells (Cell-titer Glo, 6 days); settings: read-out: H1373 Cell Proliferation IC50
Experimental: Biological Assay Example B: Inhibition of cancer cell growth in NCI-H1373 cells by PARP7 inhibitors
NCI-H1373 cells were cultured in RPMI 1640 medium supplemented with 10% fetal bovine serum, 100 U/mL penicillin and 100 ug/mL streptomycin in a 37° C., 5% CO2 incubator. Fifteen hundred cells were seeded into each well of 96-well plate in RPMI1640 medium containing 10% fetal bovine serum and incubated overnight. Serial diluted compounds for each well were added at a final DMSO concentration of 0.5% and a day zero plate was collected for analysis. Compounds were incubated with the cells for 6 days. Cell growth was assessed using Cell-titer Glo reagent (Promega #G^7572). The luminescence signal was collected on Tecan Spark plate reader. Cell growth is determined by correcting for the cell count on day zero. Inhibition rate is calculated with the formula of % inhibition=100*(DMSO control-compounds)/(DMSO control-Blank). Cell growth inhibition IC50 is calculated with the equation of Y-Bottom+ (Top-Bottom)/(1+10^((LogIC50−X) *Hill Slope)).

| IC50 (PARP7) | IC50 (NCI-H1373 cells) | IC50 (PARP7; tested form: TFA (0.4 eq)) | SMILES |
| --- | --- | --- | --- |
| < 100 nM | 100 to 1000 nM | – | Cc1c(Oc2cccc(C(=O)N3CCN(c4cnc(C(F)(F)F)cn4)CC3)c2)n[nH]c(=O)c1C(F)(F)F |
| – | – | < 100 nM | CO[C@H]1C[C@@H](Oc2c(Oc3cccc(C(=O)N4CCN(c5ncc(C(F)(F)F)cn5)CC4)c3)n[nH]c(=O)c2C(F)(F)F)C1 (relative stereo) |
| – | – | < 100 nM | N#Cc1cnc(N2CCN(C(=O)c3cccc(Oc4n[nH]c(=O)c(C(F)(F)F)c4N4CC5(C4)CC(F)(F)C5)c3)CC2)nc1 |
| < 100 nM | < 100 nM | – | N#Cc1ccc2c(c1)N(c1cc(C(F)(F)F)c(=O)[nH]n1)CC(CC(=O)N1CCN(c3cnc(C(F)(F)F)cn3)CC1)O2 (single isomer, unassigned) |
| < 100 nM | – | – | O=C(c1cccc(Oc2n[nH]c(=O)c(C(F)(F)F)c2OC2CC(F)(F)C2)c1)N1CCN(c2ncc(C(F)(F)F)cn2)CC1 |
